# Experimental data taken from PubChem BioAssay AID1347075 (National Center for Advancing Translational Sciences (NCATS), 2019).
# Screen size: about 400,000 compounds; about 5,500 (1.4%) were called active. Inconclusive results, whose numbers are uncertain, are shown with a selection of clear calls. The call rests on the fitted dose curve; in most records, active means well fitted cell-killing curve with a large enough effect; inconclusive means small, poorly fitted or top-dose-only effect, or effect the other way; inactive means flat fitted curve, though single readings scatter. A potency beside an inconclusive call is a rough fit, not a confirmed value.
# Assay: qHTS assay for MDR1-selective chemotherapeutics: Primary screen using the parental adenocarcinoma cell KB-3-1; further: nearly all actives have a fitted effect of over 60% in size
# Settings: KB-3-1 viability, CellTiter-Glo ATP luminescence, 72 h; activity change, negative = cytotoxic: at 46.1 µM (top of the series)
# Procedure, shortened: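 Multi-concentration cytotoxicity screen in KB-3-1 cells grown in DMEM lacking phenol red with 10% FBS. After 72 h at 37 °C with compound, ATP-dependent luminescence was recorded.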
# On the % scale 0 is the no-effect control and ±100 the full control effect; potency means the concentration at half of the fitted maximal effect.
Structure (SMILES),Potency,"activity change, negative = cytotoxic"
COc1ccc(C(=O)NC(=S)Nc2nc(-c3ccc(OC)c(Br)c3)cs2)cc1Br,"inconclusive: 11.6 µM [cytotoxic, partial curve, poor fit]",
CCCCN(CC)c1nc(-c2ccncc2)nc2ccccc12,"inconclusive: 0.184 µM [rising, full curve]",
Cc1ccnc(NCc2ccc(Cl)cc2)c1,"inconclusive: 29.1 µM [cytotoxic, single point]",
COC(=O)[C@]12CCCCC=C1N(Cc1ccc(Cl)cc1Cl)C(=O)[C@H](CC(=O)NCc1ccc(OC)c(OC)c1)C2,"inconclusive: 29.1 µM [cytotoxic, single point]",
O=[N+]([O-])c1cc(Cl)c(O)c2ncccc12,active: 7.31 µM,
COc1ccc(C(=O)NC(=S)NNC(=O)c2cnccn2)cc1,"inconclusive: 4.11 µM [cytotoxic, full curve]",
O=C(Nc1ccc(Cl)c(S(=O)(=O)N2CCOCC2)c1)c1ccccc1-c1ccc(C(F)(F)F)cc1,"inconclusive: 29.1 µM [cytotoxic, single point]",
COc1cccc(N2CCN(C(=O)c3[nH]c(C)c(C(C)=O)c3C)CC2)c1,active: 6.31 µM,
CC1(C)CC2CC(C)(CN2S(=O)(=O)c2ccc(F)cc2F)C1 (stereo not given),inactive,
CCOC(=O)C(C)Sc1nnc(NC(=O)c2cccc([N+](=O)[O-])c2C)s1 (stereo not given),"inconclusive: 11.6 µM [rising, single point]",
c1ccc2cc3c(NCCN4CCOCC4)ccnc3cc2c1,"inconclusive: 32.6 µM [cytotoxic, single point]",
Cc1ccc(Cn2cnc3ccccc32)cc1C,active: 8.2 µM,
Cc1cc(S(=O)(=O)N2CCN(c3ccccc3F)CC2)ccc1-n1cnnn1,"inconclusive: 8.2 µM [cytotoxic, partial curve]",
COc1ccc(OC)c(C(=O)c2coc3ccc(O)cc23)c1,"inconclusive: 29.1 µM [cytotoxic, single point]",
CCCCCCCC(=O)NC(Nc1ccc(S(N)(=O)=O)cc1)C(Cl)(Cl)Cl (stereo not given),inactive,
CCCCN(CC)S(=O)(=O)c1ccc(C(=O)Nc2nnc(CSC)o2)cc1,"inconclusive: 18.4 µM [cytotoxic, single point]",
O=C(c1cc(-c2ccc3c(c2)OCO3)on1)N1CCN(c2ccccc2)CC1,"inconclusive: 32.6 µM [cytotoxic, single point]",
CN1CC2=Cc3ccccc3OC23Oc2ccccc2C=C3C1,"inconclusive: 20.6 µM [cytotoxic, single point]",
COc1ccccc1/C=C/C(=O)Nc1ccc2c(c1)OCCO2,active: 5.17 µM,
CCC(C)c1ccc(NC(=O)C2CC3CCC2C3)cc1 (stereo not given),inactive,
CC(C)c1ccc(N(C(=O)c2snc(C(N)=O)c2N)C(C(=O)NCC2CCCO2)c2ccc(N(C)C)cc2)cc1 (stereo not given),"inconclusive: 29.1 µM [cytotoxic, single point]",
Cc1cc(C(=O)N2CCC2(C)C(=O)NCc2cccc3ccccc23)nn1C (stereo not given),inactive,
CCOc1ccc(-n2c(CC)nc3c(cnn3-c3ccc(Cl)cc3)c2=O)cc1,"inconclusive: 29.1 µM [cytotoxic, single point]",

Structure (SMILES),Potency,"activity change, negative = cytotoxic"
O=[N+]([O-])c1cc(F)c2cccnc2c1O,"inconclusive: 29.1 µM [cytotoxic, single point]",
Cc1nn(Cc2c(F)c(F)c(F)c(F)c2F)c(C)c1NC(=O)c1ccc(COc2ccc(F)cc2)o1,inactive,
COCC(C)n1c(C)cc(C(=O)CSc2cc(C)c3ccccc3n2)c1C (stereo not given),"inconclusive: 29.1 µM [cytotoxic, partial curve, poor fit]",
CCN(CC)S(=O)(=O)c1ccc(-c2cn3cc(Cl)ccc3n2)cc1,"inconclusive: 29.1 µM [cytotoxic, single point]",
CC(=O)c1c(C)n(-c2ccccc2)c2ccc(O)cc12,inactive,
CCOc1ccc(/C=N/NC(=O)Cc2csc(Nc3cccc(C(F)(F)F)c3)n2)cc1,"inconclusive: 29.1 µM [cytotoxic, single point]",
Cn1c(=O)[nH]c(=O)c2c1nc(Br)n2Cc1ccccc1Cl,"inconclusive: 29.1 µM [cytotoxic, single point]",
COc1cc2c(cc1OC)CN(C(=O)c1ccco1)CC2,"inconclusive: 20.6 µM [cytotoxic, single point]",
Cc1cc(C(=O)CSc2nnnn2-c2ccccc2)c(C)n1-c1ccc2c(c1)OCO2,"inconclusive: 29.1 µM [cytotoxic, single point]",
CC(C)N1CCC1(C)C(=O)Nc1ccccc1OC(F)F (stereo not given),,inconclusive: -35.9%
c1ccc(/N=C2\N=C(Nc3ccccn3)c3ccccc32)nc1,inactive,
CC1C(=O)N(Cc2cn(CCC3OCCCO3)nn2)CCS(=O)(=O)N1Cc1ccc(-c2ccc(F)cc2)cc1 (stereo not given),inactive,
Cc1ccc(C(C(=O)NC2CCCCC2)N(C(=O)c2csnn2)C2CC2)cc1 (stereo not given),"inconclusive: 16.4 µM [rising, single point]",
CC1CC2(C)Oc3ccccc3CC2C(C)C1CNCCCN(C)C (stereo not given),active: 14.6 µM,
Cc1cccc(N(CC(=O)NC2CCCCC2)C(=O)c2ccc(C)s2)c1,inactive,
CCS(=O)(=O)N1CCC(NC(=O)C(Cc2ccc(OC)c(OC)c2)NC(C)=O)CC1 (stereo not given),inactive,
Nc1cc2c3c(cccc3c1)C(=O)N(CCN1CCCC1)C2=O,"inconclusive: 11.6 µM [cytotoxic, partial curve, poor fit]",
CCN(CC)S(=O)(=O)c1ccc(NC(=O)c2cc(=O)[nH]c3ccccc23)cc1,inactive,
CCOC(=O)C1=C(COC(=O)/C=C/c2ccc(OC)cc2)NC(=O)NC1C (stereo not given),"inconclusive: 18.4 µM [cytotoxic, partial curve]",
CCc1ccc(C(=O)CN(C#N)c2nc(C)cc(C)n2)cc1,"inconclusive: 35.5 µM [cytotoxic, single point]",
c1cncc(-c2nc(NCC3COc4ccccc4O3)c3ccccc3n2)c1 (stereo not given),"inconclusive: 9.2 µM [cytotoxic, partial curve, poor fit]",
COc1cccc(C2Nc3ccccc3NC3=C2C(=O)CC(C)(C)C3)c1OC (stereo not given),inactive,

# Exported as tab-separated lines: part of the list above.
Structure (SMILES)	Potency	activity change, negative = cytotoxic
COc1cc2c(cc1OC)CN(C(=O)c1ccco1)CC2	inconclusive: 20.6 µM [cytotoxic, single point]	
Cc1cc(C(=O)CSc2nnnn2-c2ccccc2)c(C)n1-c1ccc2c(c1)OCO2	inconclusive: 29.1 µM [cytotoxic, single point]	
